These are yes or no findings as the source states them, for the method shown.
Molecular target: Kif2C-(sN+M) (short neck+motor construct of human Kif2C/MCAK) (human) (UniProt Q99661)
Assay: SEC; gel filtration of Kif2C-(sN+M) alone; conditions not given; both purified

Protein sequences, listed by entry. Tags and fused reporters are not part of them. Residues count along the entry.
UniProt Q99661, residues 216-598: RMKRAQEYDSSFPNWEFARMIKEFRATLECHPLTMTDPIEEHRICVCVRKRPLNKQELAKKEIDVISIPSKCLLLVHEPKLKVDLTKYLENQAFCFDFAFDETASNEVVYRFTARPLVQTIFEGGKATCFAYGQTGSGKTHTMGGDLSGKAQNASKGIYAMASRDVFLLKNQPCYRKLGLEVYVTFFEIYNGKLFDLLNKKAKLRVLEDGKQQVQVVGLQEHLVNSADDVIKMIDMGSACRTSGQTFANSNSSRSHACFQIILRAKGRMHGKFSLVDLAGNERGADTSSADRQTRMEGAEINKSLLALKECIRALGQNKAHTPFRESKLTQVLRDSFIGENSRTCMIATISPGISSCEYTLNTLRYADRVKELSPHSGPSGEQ

binding: no binding
Substance: Kif2C-(sN+M) (short neck+motor construct of human Kif2C/MCAK) (from UniProt Q99661 216-598) (domain or fragment)
